System: HFD-fed C57Bl6 mice
Experiment: Daily LP533401 treatment of HFD-fed C57Bl6 mice (prevention of obesity)
Assay type: in vivo
Conditions: Tph1 inhibitor 25 mg/kg daily i.p., values ± SEM, n = 7-8
Source text: Animals. All experiments were approved by the McMaster University animal ethics committee and conducted under the Canadian guidelines for animal research. Tph1^−/− mice on C57BL/6 background were originally produced by gene mutation as described by Côté et al. (Proc Natl Acad Sci USA 100, 13525-13530 (2003)). Heterozygous (Tph1^+/−) mice were interbred to generate Tph1^−/− and Tph1^+/+ littermates. Starting at 8 weeks of age, male Tph1^−/− and Tph1^+/+ mice received either a chow (17% kcal fat; Diet 8640, Harlan Teklad, Madison, Wis.) or high-fat diet (HFD, 45% kcal fat, D12451, Research Diets; New Brunswick, N.J.) and water ad libitum for 12 weeks. […]
Metabolic monitoring was performed in a Comprehensive Lab Animal Monitoring System (CLAMS, Columbus Instruments, OH, USA) as previously described (Sachithanandan, N., et al. Hepatology 52, 1632-1642 (2010); O'Neill, H. M., et al. Proc Natl Acad Sci 108, 16092-16097 (2011)). […] For serum insulin and cytokine measurements, fasting and fed blood samples were collected by retro-orbital bleed between weeks 16-18 using a non-heparinized capillary tube and insulin, adiponectin, leptin were measured as described (Watt, M. J., et al. Nature medicine 12, 541-548 (2006)). Serum cytokines (MCP-1, TNFα, and IL-6) were measured using a multiplexed bead-based immunoassay (BD Biosciences, San Jose, Calif., USA) following the manufacturer's instructions. […]

## Nc1nc(OC(c2ccc(-c3cccc(F)c3)cc2)C(F)(F)F)cc(-c2ccc(C[C@H](N)C(=O)O)cc2)n1 (stereo partly drawn) [LP533401, (2S)-2-amino-3-(4-(2-amino-6-(2,2,2-trifluoro-1-(3′-fluoro-[1,1′-biphenyl]-4-yl)ethoxy)pyrimidin-4-yl)phenyl)propanoic acid]
  Tissue weight, Heart: 153 ± 10.6 mg
  Tissue weight, Spleen: 147 ± 23.3 mg
